We go through 30 targets from the supplement of paper PMC10849652.

Amino acid sequences for entries named in this document (tags omitted). A change or cut given only in a name is not applied to a line headed by its entry.
UniProt Q5SRI9: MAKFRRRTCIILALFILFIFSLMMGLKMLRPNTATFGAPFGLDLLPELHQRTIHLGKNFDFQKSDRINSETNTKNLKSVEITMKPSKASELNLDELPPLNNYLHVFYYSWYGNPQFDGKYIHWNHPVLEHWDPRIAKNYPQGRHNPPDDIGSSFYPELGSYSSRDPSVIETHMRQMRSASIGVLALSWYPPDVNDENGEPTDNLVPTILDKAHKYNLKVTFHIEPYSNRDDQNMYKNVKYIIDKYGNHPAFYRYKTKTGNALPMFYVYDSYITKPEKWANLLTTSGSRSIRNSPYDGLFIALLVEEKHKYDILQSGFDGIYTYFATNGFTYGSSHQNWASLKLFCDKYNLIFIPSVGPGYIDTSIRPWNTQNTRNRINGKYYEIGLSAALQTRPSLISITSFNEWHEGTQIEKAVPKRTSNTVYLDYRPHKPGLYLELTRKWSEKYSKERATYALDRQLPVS
UniProt P12980: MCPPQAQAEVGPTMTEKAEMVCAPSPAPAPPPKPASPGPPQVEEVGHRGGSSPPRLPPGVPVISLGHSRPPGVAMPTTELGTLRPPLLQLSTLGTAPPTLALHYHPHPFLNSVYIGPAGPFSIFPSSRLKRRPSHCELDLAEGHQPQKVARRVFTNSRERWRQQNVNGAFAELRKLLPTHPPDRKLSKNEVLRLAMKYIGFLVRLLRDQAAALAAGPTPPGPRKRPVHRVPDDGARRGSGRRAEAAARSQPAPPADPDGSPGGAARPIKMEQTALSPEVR
UniProt Q7Z3D4: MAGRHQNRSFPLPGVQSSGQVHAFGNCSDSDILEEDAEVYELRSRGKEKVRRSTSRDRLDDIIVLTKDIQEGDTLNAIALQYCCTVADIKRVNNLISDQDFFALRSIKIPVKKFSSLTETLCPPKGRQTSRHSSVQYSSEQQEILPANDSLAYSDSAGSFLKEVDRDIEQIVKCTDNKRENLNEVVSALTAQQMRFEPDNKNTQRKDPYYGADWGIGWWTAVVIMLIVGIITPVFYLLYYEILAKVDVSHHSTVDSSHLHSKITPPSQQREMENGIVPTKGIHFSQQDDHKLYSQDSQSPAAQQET
UniProt Q8WXG6, whole entry, looked up: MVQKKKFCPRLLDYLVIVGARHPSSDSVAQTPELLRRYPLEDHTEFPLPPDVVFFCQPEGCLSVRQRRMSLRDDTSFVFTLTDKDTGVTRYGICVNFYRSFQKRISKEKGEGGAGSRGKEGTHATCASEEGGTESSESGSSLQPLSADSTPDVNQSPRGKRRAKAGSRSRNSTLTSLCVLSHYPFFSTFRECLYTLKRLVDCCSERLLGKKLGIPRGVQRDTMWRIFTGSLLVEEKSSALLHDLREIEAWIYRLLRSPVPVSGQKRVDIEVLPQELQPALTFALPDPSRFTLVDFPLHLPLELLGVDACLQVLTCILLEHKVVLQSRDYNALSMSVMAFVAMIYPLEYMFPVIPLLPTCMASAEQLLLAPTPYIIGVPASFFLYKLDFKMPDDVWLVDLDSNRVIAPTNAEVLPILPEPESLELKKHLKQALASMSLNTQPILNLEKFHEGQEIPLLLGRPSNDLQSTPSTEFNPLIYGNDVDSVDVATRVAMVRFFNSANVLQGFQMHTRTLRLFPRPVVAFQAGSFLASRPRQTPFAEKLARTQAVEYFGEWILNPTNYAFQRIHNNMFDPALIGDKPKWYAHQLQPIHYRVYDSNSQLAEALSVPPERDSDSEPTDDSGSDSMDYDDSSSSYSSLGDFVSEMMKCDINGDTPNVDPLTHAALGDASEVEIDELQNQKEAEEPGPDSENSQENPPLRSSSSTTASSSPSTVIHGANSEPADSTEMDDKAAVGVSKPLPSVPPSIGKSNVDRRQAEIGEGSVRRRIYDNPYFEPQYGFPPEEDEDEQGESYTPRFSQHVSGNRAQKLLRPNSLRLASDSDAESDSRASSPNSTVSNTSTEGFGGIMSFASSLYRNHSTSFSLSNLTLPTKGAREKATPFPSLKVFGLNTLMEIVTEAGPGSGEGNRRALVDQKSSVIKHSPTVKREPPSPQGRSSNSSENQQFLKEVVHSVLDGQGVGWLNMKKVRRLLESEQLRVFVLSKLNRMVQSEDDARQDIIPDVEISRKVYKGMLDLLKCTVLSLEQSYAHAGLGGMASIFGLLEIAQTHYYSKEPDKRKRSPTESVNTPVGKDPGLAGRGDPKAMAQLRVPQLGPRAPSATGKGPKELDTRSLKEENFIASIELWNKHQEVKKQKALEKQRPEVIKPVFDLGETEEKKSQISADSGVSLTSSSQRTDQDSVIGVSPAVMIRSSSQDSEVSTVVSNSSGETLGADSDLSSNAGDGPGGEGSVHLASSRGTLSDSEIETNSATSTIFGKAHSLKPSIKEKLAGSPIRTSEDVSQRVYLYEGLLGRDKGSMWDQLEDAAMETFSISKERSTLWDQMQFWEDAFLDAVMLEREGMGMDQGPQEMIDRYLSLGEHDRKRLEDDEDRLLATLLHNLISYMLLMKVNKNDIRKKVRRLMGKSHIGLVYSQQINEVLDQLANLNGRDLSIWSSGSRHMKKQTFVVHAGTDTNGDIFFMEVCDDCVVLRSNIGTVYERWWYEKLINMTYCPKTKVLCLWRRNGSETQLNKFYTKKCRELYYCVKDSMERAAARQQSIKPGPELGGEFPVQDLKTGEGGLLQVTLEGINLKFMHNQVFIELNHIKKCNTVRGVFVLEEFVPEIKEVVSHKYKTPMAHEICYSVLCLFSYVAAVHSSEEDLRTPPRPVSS
UniProt Q8WVR3: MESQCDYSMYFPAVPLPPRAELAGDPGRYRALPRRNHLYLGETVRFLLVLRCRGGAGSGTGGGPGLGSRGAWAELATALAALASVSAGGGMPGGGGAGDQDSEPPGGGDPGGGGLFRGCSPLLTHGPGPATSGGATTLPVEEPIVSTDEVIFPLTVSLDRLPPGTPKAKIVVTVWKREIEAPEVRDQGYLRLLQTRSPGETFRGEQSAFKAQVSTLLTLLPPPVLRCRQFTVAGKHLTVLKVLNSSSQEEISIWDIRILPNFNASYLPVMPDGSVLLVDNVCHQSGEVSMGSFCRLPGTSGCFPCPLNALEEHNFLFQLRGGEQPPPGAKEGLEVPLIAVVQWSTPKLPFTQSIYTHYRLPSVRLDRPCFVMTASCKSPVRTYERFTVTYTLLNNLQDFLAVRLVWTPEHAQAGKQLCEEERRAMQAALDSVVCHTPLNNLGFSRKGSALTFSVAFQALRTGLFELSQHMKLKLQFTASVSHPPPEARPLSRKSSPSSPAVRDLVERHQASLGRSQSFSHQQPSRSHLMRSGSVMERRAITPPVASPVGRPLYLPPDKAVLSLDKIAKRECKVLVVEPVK
UniProt Q9Y4K4: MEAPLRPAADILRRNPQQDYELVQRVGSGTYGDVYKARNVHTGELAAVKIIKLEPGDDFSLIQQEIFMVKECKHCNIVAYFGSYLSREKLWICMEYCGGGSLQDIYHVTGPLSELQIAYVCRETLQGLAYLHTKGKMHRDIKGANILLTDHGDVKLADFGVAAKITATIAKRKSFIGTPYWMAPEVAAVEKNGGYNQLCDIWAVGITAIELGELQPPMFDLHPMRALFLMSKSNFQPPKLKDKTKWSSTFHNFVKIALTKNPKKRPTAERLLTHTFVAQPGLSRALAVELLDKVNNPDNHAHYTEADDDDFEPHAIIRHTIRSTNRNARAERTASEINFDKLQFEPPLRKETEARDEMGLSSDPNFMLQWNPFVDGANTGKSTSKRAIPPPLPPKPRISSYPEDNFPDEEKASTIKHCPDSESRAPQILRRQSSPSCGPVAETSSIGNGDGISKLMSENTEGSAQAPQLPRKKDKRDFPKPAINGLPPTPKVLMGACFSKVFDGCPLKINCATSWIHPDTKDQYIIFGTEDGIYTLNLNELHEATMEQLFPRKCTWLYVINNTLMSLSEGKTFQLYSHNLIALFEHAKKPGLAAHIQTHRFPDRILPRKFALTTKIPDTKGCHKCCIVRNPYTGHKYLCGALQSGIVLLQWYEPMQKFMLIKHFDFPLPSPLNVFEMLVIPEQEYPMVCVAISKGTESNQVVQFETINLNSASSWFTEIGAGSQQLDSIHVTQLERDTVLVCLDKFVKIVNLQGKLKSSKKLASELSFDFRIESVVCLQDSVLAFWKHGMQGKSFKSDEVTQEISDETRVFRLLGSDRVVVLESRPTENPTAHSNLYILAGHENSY
UniProt P36941: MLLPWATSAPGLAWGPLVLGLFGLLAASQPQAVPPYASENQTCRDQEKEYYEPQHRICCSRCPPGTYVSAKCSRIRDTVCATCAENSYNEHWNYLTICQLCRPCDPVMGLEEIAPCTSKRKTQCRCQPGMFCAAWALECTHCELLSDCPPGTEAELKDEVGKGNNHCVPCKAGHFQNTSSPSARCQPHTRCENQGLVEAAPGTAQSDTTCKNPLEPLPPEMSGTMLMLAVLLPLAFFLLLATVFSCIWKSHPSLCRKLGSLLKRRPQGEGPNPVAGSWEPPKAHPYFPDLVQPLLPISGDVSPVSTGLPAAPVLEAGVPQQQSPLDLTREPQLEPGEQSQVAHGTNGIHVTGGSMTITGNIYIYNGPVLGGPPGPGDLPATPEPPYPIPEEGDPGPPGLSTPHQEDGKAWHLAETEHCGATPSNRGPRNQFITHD
UniProt Q6NSJ5: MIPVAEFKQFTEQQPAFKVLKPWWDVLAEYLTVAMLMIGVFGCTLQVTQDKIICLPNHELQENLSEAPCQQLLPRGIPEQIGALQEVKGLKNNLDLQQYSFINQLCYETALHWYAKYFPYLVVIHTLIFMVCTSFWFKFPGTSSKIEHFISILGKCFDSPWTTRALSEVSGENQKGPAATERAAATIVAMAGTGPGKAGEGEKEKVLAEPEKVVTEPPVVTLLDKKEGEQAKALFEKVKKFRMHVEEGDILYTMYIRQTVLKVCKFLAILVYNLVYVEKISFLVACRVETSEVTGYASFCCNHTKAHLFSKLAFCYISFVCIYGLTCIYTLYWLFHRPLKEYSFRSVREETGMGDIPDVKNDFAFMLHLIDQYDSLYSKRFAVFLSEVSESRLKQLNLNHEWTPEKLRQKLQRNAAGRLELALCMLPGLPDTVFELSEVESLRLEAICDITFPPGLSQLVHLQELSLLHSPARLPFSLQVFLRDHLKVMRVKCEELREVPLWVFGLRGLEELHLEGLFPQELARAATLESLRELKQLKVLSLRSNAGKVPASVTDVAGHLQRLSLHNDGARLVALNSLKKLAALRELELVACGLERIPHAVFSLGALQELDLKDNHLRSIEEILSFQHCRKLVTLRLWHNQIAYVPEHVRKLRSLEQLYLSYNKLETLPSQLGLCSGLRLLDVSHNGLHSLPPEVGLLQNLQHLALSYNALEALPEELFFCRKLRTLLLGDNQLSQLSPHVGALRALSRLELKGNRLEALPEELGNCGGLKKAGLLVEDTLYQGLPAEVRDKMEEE
UniProt Q9Y6D9: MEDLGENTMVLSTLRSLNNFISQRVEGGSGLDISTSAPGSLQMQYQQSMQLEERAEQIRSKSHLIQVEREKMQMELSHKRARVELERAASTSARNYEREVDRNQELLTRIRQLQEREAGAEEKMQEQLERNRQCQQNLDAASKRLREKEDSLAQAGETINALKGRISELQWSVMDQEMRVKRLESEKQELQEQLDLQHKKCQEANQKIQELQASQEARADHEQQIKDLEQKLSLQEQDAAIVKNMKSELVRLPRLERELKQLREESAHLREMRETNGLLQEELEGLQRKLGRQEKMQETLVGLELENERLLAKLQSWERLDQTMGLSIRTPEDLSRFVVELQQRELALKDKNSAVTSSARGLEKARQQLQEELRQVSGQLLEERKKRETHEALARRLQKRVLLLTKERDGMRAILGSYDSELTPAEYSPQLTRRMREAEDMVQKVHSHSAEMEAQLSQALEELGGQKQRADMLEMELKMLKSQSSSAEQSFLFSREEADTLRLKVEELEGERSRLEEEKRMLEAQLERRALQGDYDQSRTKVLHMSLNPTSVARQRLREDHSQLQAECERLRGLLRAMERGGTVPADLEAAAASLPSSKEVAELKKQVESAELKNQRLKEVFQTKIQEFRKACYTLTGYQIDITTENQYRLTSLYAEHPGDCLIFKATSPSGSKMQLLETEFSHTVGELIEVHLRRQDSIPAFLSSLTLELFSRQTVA
UniProt P43355: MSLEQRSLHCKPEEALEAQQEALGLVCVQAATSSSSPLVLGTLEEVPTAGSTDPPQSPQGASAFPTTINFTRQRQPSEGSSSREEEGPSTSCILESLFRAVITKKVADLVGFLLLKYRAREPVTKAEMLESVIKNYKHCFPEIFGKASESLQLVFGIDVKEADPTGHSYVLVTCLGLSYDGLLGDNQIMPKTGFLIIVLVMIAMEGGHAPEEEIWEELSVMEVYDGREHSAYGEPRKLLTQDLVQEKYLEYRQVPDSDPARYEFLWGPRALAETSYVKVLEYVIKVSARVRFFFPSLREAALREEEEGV
UniProt Q9ULX9: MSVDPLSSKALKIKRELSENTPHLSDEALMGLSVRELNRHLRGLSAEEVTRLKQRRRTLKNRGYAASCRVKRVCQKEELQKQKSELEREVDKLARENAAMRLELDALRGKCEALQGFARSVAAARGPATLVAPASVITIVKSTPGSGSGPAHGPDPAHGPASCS

The other results are listed elsewhere or left out.

Compound in the first experiment: Cn1cc(-c2ccc3c(c2)CCN3C(=O)Cc2cccc(C(F)(F)F)c2)c2c(N)ncnc21
In words: log2 fold change, soluble protein after heating vs DMSO (PISA); higher = thermal stabilisation; K562 cells, 10 uM, 30 min; active = over 0.2 and 3.5 SD of the protein, either way, in both replicates (recomputed). The procedure, abridged:
(§1)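 K562 cells at 2×10^6 cells/mL were exposed to 10 μM compound for 30 min, then aliquots were heated for 3 min across 48°C-58°C, pooled, and extracted in PBS containing 0.5% NP-40 at 4°C. The supernatant after 21,000xg for 90 min was taken as soluble protein and measured by TMTpro 16plex LC-MS/MS with channel sums equalised. Thermal stability is reported relative to control samples, with values from duplicates. Fold changes are given on a log2 scale.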
For MANEA (UniProt Q5SRI9), the log2 fold change is inactive: -0.041. Turning to LSM5 (UniProt Q9Y4Y9), the log2 fold change was inactive: 0.004. Same read-out and setting: for LYL1 (UniProt P12980) the value was inactive: -0.037; for MARK2 (UniProt E9PC69), inactive: -0.038.

As for LSM8 (UniProt O95777), the log2 fold change was inactive: 0.034.

For the target MAPK1 (UniProt P28482), the log2 fold change was inactive: 0.019. As for LSM6 (UniProt P62312), the log2 fold change was inactive: 0.055. As to LYSMD3 (UniProt Q7Z3D4), the log2 fold change was inactive: 0.028. On the same count and under the same terms, under MADD isoform 2 (UniProt Q8WXG6) stands inactive: -0.181; under LYRM4 (UniProt Q9HD34), inactive: 0.023.

Take MAP7D3 (UniProt Q8IWC1): the log2 fold change is inactive: -0.045. For the target LYN (UniProt P07948), the log2 fold change was inactive: -0.06.

As for MAP11 (UniProt Q8WVR3), the log2 fold change was inactive: 0.108. With MAD2L1BP isoform 3 (UniProt Q15013), the log2 fold change was inactive: 0.029. In the case of MACO1 (UniProt Q8N5G2), the log2 fold change is inactive: -0.052. Still for that read-out and setting: under LYZ (UniProt P61626) stands inactive: -0.002; under MAP4K5 (UniProt Q9Y4K4), inactive: -0.125; under MAPK6 (UniProt Q16659), inactive: 0.099.

In the case of LTBR (UniProt P36941), the log2 fold change was inactive: -0.107. On the same count and under the same terms, under LRRC8E (UniProt Q6NSJ5) stands inactive: 0.107; under MAP3K2 (UniProt Q9Y2U5), inactive: 0.109. The same measure, in the same setting: under MAP3K4 isoform 2 (UniProt Q9Y6R4) stands inactive: -0.031; under MAD1L1 (UniProt Q9Y6D9), inactive: 0.027. On the same count and under the same terms, under MAP4K2 (UniProt Q12851) stands inactive: -0.135.

MAGEA1 (UniProt P43355): the log2 fold change is inactive: 0.034. In the case of MAP3K20 (UniProt Q9NYL2), the log2 fold change is inactive: -0.065. Turning to LRWD1 (UniProt Q9UFC0), the log2 fold change is inactive: 0.109.

Compound in another experiment: Cn1cc(-c2ccc3nnc(C(F)(F)c4ccc5ncccc5c4)n3n2)cn1
Described as above. The essentials: as §1
On to MANEA (UniProt Q5SRI9), for which the log2 fold change is inactive: -0.047. On the same count and under the same terms, for LSM5 (UniProt Q9Y4Y9) the value was inactive: -0.089; for LYL1 (UniProt P12980), inactive: -0.087; for MARK2 (UniProt E9PC69), inactive: -0.088. On the same count and under the same terms, under LSM8 (UniProt O95777) stands inactive: -0.012. Take MAFF (UniProt Q9ULX9): the log2 fold change was inactive: -0.05. For the target MAN2B2 (UniProt Q9Y2E5), the log2 fold change is inactive: -0.088.

In the case of MAPK1 (UniProt P28482), the log2 fold change was inactive: 0.033. On the same count and under the same terms, under LSM6 (UniProt P62312) stands inactive: -0.018. The same measure, in the same setting: for LYSMD3 (UniProt Q7Z3D4) the value was inactive: 0.063; for MADD isoform 2 (UniProt Q8WXG6), inactive: -0.031; for LYRM4 (UniProt Q9HD34), inactive: 0.063. As to MAP7D3 (UniProt Q8IWC1), the log2 fold change was inactive: -0.161. Same read-out and setting: for LYN (UniProt P07948) the value was inactive: 0.034; for MAD2L1BP isoform 3 (UniProt Q15013), inactive: -0.065. Still for that read-out and setting: under MACO1 (UniProt Q8N5G2) stands inactive: -0.085; under LYZ (UniProt P61626), inactive: 0.248.

Take MAP4K5 (UniProt Q9Y4K4): the log2 fold change was inactive: 0.019. The same measure, in the same setting: under LTBR (UniProt P36941) stands inactive: 0.034; under LRRC8E (UniProt Q6NSJ5), inactive: 0.049. Take MAP3K2 (UniProt Q9Y2U5): the log2 fold change was inactive: 0.066. Regarding LRRC8B (UniProt Q6P9F7), the log2 fold change was inactive: -0.108. For MAP3K4 isoform 2 (UniProt Q9Y6R4), the log2 fold change is inactive: 0.021. Still for that read-out and setting: under MAD1L1 (UniProt Q9Y6D9) stands inactive: 0.014; under MAGEA1 (UniProt P43355), inactive: -0.07; under MAP3K20 (UniProt Q9NYL2), inactive: -0.019.

Regarding LRWD1 (UniProt Q9UFC0), the log2 fold change is inactive: 0.111.
